Some of the results follow. Further columns of the screen follow, without active or inactive calls. The list favours compounds with an active or inconclusive main result. The note in brackets gives the kind of curve behind each potency; many fits are weak.

The assay in a line: qHTS Assay for Lipid Storage Modulators in Drosophila S3 Cells.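 For cell number change: cells counted by Cell Tracker Red CMTPX staining in the red channel.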 The settings on record: BODIPY lipid droplet fluorescence, 18-24 h; for cell number change: measured here: cell count max response, cells fed with added oleic acid. The procedure, abridged: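 Drosophila S3 cells loaded with oleic acid (400 uM, as added) and compounds at several concentrations; lipid droplets imaged by 488-nm laser-scanning cytometry, 500–530 nm intensity and object ratio to cell channel. Percent activity normalized to 20 uM Triacsin C.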
A general note: In qHTS, concentration-response curves come from the screen itself.

Where [1] appears, read: measured here: lipid fluorescence (Fed channel) AC50, cells fed with added oleic acid.
[2] abbreviates: measured here: cell number channel AC50, cells fed with added oleic acid.

In the case of `COc1ccc(C(=O)N2CCOC2CNC(=O)C(=O)NCc2ccc(Cl)cc2)cc1` (centres undefined), the cell number change was 2.96%. In the case of `Cc1cccc(-n2c(O)c(C=NC3CCS(=O)(=O)C3)c3ccccc3c2=O)c1C` (centres undefined), the cell number change came out at 25.8%. Moreover, under setting [1], the AC50 (in general, the concentration at which the activity in the assay is half-maximal) is 16.4 µM [rising, single point]. As for `O=C(CCS(=O)(=O)c1cccc2nonc12)NC1CCCCCC1`, the cell number change was found to be 13.4%. The AC50 under setting [1] is 4.61 µM [rising, partial curve]. Regarding `COc1ccc(CCNC(=O)c2cccc(S(=O)(=O)NC(C)c3ccccc3)c2)cc1` (centres undefined), the cell number change was 3.01%. The AC50 under setting [2] is 0.411 µM [falling, single point].

For `O=C(Nc1ccc(Cl)cc1N1CCOCC1)C1CCCO1` (centres undefined), the cell number change was -1.38%. Further, the AC50 under setting [1] was 29.1 µM [falling, single point]. With `O=C(CSCc1cc(=O)n2ccsc2n1)Nc1ccc(F)cc1`, the cell number change was -15.3%. Also, the AC50 under setting [1] was 6.51 µM [rising, partial curve, poor fit].

As to `CCOC(=O)N=Nc1c(O)n(Cc2ccccc2)c2ccccc12`, the cell number change is -7.9%. The AC50 under setting [1] is 0.461 µM [falling, single point]. Regarding `CC(=O)Nc1cccc(NC(=O)c2cccc3cccnc23)c1`, the cell number change is 2.25%. On to `COc1cc(-c2nc(C(=O)NC3CCCCC3)cc3c2[nH]c2ccccc23)cc(OC)c1OC`, for which, under setting [1], the AC50 was 5.17 µM [falling, full curve].

On to `CCOC(=O)CNc1ncc([N+](=O)[O-])cc1C#N`, for which the cell number change was 12.2%. Further, under setting [1], the AC50 is 0.146 µM [rising, full curve, poor fit]. Consider `CCCSCCCNC(=O)CN1C(=O)COc2ccc(S(=O)(=O)N3CCCC3)cc21`, for which the cell number change turned out to be 6.57%. Besides, under setting [1], the AC50 is 29.1 µM [rising, single point]. As to `COCCN(C(=O)c1cccc(OC)c1)c1nnc(-c2ccncc2)s1`, the cell number change was 20.6%. The AC50 under setting [1] was 18.4 µM [rising, single point]. With `COc1cc(C(=O)Nc2nc(-c3ccc(F)cc3)cs2)ccc1OCC(=O)N1CCOCC1`, the cell number change is -32.3%. The AC50 under setting [2] is 6.51 µM [rising, partial curve, poor fit].

Consider `COc1ccccc1N(C)S(=O)(=O)c1ccc(C(=O)OCC(=O)N2CCC2)cc1`, for which the cell number change was 22.8%. The half-maximal activity concentration (AC50) under setting [2] is 0.00461 µM [falling, full curve, poor fit]. `CCc1ccc(OCC(=O)Nc2ccc3c(c2)OCCO3)cc1`: the cell number change was determined as 22.5%. In addition, the AC50 under setting [1] is 29.1 µM [rising, single point]. Take `CC1CCN(CC(O)Cn2c3ccccc3c3ccccc32)CC1` (centres undefined): the cell number change was found to be 0.549%. For the same compound, the AC50 under setting [1] is 16.4 µM [rising, partial curve]. With `COc1cc(NC(=O)C2=CC(c3ccco3)=NS(=O)(=O)N2C)cc(OC)c1OC`, the AC50 under setting [1] is 1.64 µM [rising, single point]. With `Cc1ccc(S(=O)(=O)N2CCN(CC3CC4C=CC3C4)CC2)cc1` (centres undefined), the cell number change is 25.7%. Consider `CC12COC3(C(=O)Nc4ccc(F)cc4)CC1CCC32C` (centres undefined), for which the cell number change is -23.5%. The AC50 under setting [1] was 29.1 µM [falling, single point]. `O=C1c2ccccc2NC(c2c(Cl)cccc2Cl)N1Cc1ccccc1` (centres undefined): the cell number change is 6.83%. The AC50 under setting [1] is 29.1 µM [rising, single point]. Consider `CC1CC(C)CN(CC(=O)NC(c2ccccc2)c2ccccc2)C1` (centres undefined), for which the cell number change is -34.4%. The AC50 under setting [2] is 29.1 µM [falling, single point]. Under setting [1], the AC50 was 32.6 µM [falling, single point]. Consider `O=C(COC(=O)c1ccccc1C(=O)c1ccccc1)Nc1cccc([N+](=O)[O-])c1`, for which the cell number change was 18.4%. For the same compound, under setting [1], the AC50 was 0.146 µM [falling, full curve, poor fit]. `CC(NC(=O)Nc1cccc(Cl)c1)C(c1cccs1)N1CCCC1` (centres undefined): the cell number change stood at 12.8%. In addition, the AC50 under setting [1] is 16.4 µM [falling, single point]. `COc1ccc(Cc2c(O)nc[nH]c2=O)cc1`: the cell number change is -43.1%. The AC50 under setting [2] was 18.4 µM [falling, single point].

Regarding `COc1ccc(N(CC(=O)N/N=C/c2ccc(OC)cc2OC)S(=O)(=O)c2ccccc2)cc1`, the AC50 under setting [1] was 4.61 µM [rising, single point]. As for `Cn1nc(CC(=O)Nc2ncc(Br)s2)c2ccccc2c1=O`, the cell number change was -24.2%. For the same compound, the AC50 under setting [1] is 25.9 µM [falling, single point]. Turning to `Cc1nc2ccccc2c2oc(C(=O)NCC3COc4ccccc4O3)cc12` (centres undefined), the cell number change is -2.28%. The AC50 under setting [1] was 0.291 µM [rising, full curve, poor fit].

With `CCc1ccccc1S(=O)(=O)c1c(C)cc(C)nc1Cl`, the cell number change is 3.52%. For the same compound, the AC50 under setting [1] was 0.517 µM [falling, single point]. In the case of `CN(c1ccccc1)S(=O)(=O)c1ccc(C(=O)NCc2ccccc2F)cc1`, the AC50 under setting [1] is 10.3 µM [falling, partial curve]. `NC(=O)CSc1nc2sc(-c3ccccc3)cc2c(=O)n1N`: the cell number change was -16.1%. In addition, under setting [1], the AC50 is 23.1 µM [falling, partial curve, poor fit].

With `CS(=O)(=O)c1ccccc1C(=O)Nc1cc(Cl)ccc1-n1cncn1`, the cell number change was determined as 25.3%. The AC50 under setting [1] is 1.84 µM [rising, partial curve, poor fit].

Take `CN(C)CCNc1c2c(c(C#N)c3nc4ccccc4n13)CCCC2`: the cell number change was -0.919%. Moreover, the AC50 under setting [1] is 0.58 µM [falling, partial curve, poor fit]. For the compound `CCCn1c(=O)[nH]c(=O)c2c1nc(-c1cccs1)n2CCOC`, the AC50 under setting [1] is 1.46 µM [rising, single point]. As to `Cc1cc(C(=O)OCC(=O)N2CCOCC2)ccc1[N+](=O)[O-]`, the cell number change was -21.5%. Besides, the half-maximal activity concentration (AC50) under setting [1] is 5.8 µM [rising, single point].

Take `O=C(NCC(=O)N1CCN(C(=O)c2ccco2)CC1)c1ccccc1`: the cell number change was found to be 12.7%.

On to `CCOC(=O)C(C)Sc1ncc(-c2ccc(Cl)cc2)cn1` (centres undefined), for which the cell number change was found to be 8.58%. Also, the AC50 under setting [1] was 0.366 µM [rising, full curve]. Regarding `CCC1=C(OC(=O)c2ccccc2)C(C)(C)C(c2ccccc2)OC1=O` (centres undefined), the cell number change was 16.1%. In addition, the AC50 under setting [1] is 0.651 µM [falling, full curve]. As for `CCc1cc2c(CN3CCN(C)CC3)cc(=O)oc2cc1O`, the cell number change was found to be 0.357%. Also, under setting [1], the AC50 was 2.06 µM [falling, partial curve]. With `N/C(=N\N=C/c1ccc(Br)cc1)N/N=C\c1ccc(Br)cc1`, the cell number change was -2%. On to `CCOc1cc(C(=O)Nc2ccc3c(c2)OCO3)ccc1OCCOc1ccccc1Cl`, for which the cell number change amounted to 36.5%. Also, the AC50 under setting [2] was 0.00517 µM [rising, full curve, poor fit]. For the same compound, the AC50 under setting [1] is 4.11 µM [rising, partial curve, poor fit]. For `Cn1c(=O)c2c(nc(N/N=C/c3ccc(OC(=O)c4ccco4)cc3)n2Cc2ccccc2Cl)n(C)c1=O`, the cell number change was -22%. Under setting [2], the AC50 is 1.84 µM [falling, partial curve, poor fit]. On to `COc1ccc(CN2C(=O)C(CC(C)C)Nc3ncnc(N4CCN(c5ccccc5)CC4)c32)cc1` (centres undefined), for which the cell number change was found to be 14.9%. In addition, the AC50 under setting [1] is 16.4 µM [rising, partial curve, poor fit]. With `Cc1nc(SCC(=O)c2ccccc2)n[nH]1`, the cell number change worked out at 5.62%. Further, the AC50 under setting [2] was 4.61 µM [falling, partial curve, poor fit]. Besides, under setting [1], the AC50 was 18.4 µM [falling, partial curve]. Regarding `Cc1cc(S(=O)(=O)N2CCOCC2)ccc1OCC(=O)Nc1ccccc1C(F)(F)F`, the cell number change was 47.4%. For the same compound, under setting [2], the AC50 is 20.6 µM [rising, partial curve, poor fit]. `O=C(CCCCl)N1CCc2[nH]c3ccccc3c2C1`: the cell number change was -2.2%. Besides, the AC50 under setting [1] was 0.00461 µM [rising, full curve, poor fit].

As for `O=C(CCNS(=O)(=O)c1cccs1)N1CCN(c2ccc(F)cc2)CC1`, the cell number change worked out at 14.3%. In the case of `Cc1cccc(-c2noc(CCCC(=O)NC3CCCC3)n2)c1`, the cell number change was -7.89%. Also, the AC50 under setting [1] was 0.631 µM [rising, full curve, poor fit]. Turning to `O=C(O)C(Nc1nc(C(F)(F)F)nc2ccccc12)c1ccccc1` (centres undefined), the cell number change is -5.25%. Consider `Cc1ccc(CN2CCC(c3cc(-c4cccs4)n[nH]3)CC2)cc1`, for which the cell number change was 52.6%. Besides, the AC50 under setting [2] is 5.8 µM [falling, single point]. The AC50 under setting [1] is 3.66 µM [falling, partial curve]. For `CCOC(=O)N1CCN(C(=O)C2CCN(S(=O)(=O)c3ccc(OCC)cc3)CC2)CC1`, the cell number change came out at 9.9%. Regarding `CCOc1cc(/C=C2\SC(=NC)N(C)C2=O)cc(Cl)c1OC(C)=O`, the cell number change turned out to be 26%. Moreover, the AC50 under setting [1] was 29.1 µM [rising, single point].

On to `COc1ccc(S(=O)(=O)Cc2ccc(C(=O)N3CCN(c4ccccn4)CC3)o2)cc1`, for which the AC50 under setting [1] is 29.1 µM [rising, single point]. `CCCN1CCC2(CC1)C(C#N)=C(N)Oc1c2sc2nc(C)cc(C)c12`: the cell number change stood at 32.9%. Also, the AC50 under setting [2] was 16.4 µM [rising, partial curve]. In addition, the AC50 under setting [1] was 23.1 µM [rising, single point]. As for `COc1ccc(-c2ccc(-c3noc(-c4ccccc4C)n3)c(OC)n2)cc1`, the cell number change amounted to 13.6%. The AC50 under setting [1] is 2.06 µM [rising, partial curve]. As for `Cc1ccc(NC(=O)Cn2cccc2)cc1C`, the cell number change came to 18.7%. Under setting [1], the AC50 was 23.1 µM [rising, single point]. As to `O=C(N/N=C/c1ccc(OCc2ccccc2)cc1)c1ccncc1`, the cell number change came to 1.29%. Moreover, the AC50 under setting [1] is 3.26 µM [rising, single point]. Take `COc1ccc(NC(=O)CN2C(=O)NC(C)(c3ccc(C)cc3)C2=O)cn1` (centres undefined): the cell number change was -3.88%. The AC50 under setting [1] is 10.3 µM [falling, partial curve]. For the compound `COc1ccccc1N(CC(=O)N/N=C/c1ccc(OCC(=O)NCc2ccco2)cc1)S(=O)(=O)c1ccc(C)cc1`, the cell number change is 29.4%. Further, the AC50 under setting [1] was 3.66 µM [rising, full curve]. On to `O=C(N/N=C/c1ccco1)c1cccc(NC(=O)c2ccccc2Cl)c1`, for which the cell number change came to 11.7%. Further, under setting [1], the AC50 is 4.11 µM [rising, partial curve, poor fit]. Turning to `CCOc1ccc2nc(NC(=O)c3cnc(C)cn3)sc2c1`, the cell number change was 30.7%. Further, under setting [2], the half-maximal activity concentration (AC50) was 2.06 µM [rising, partial curve]. Besides, the AC50 under setting [1] is 6.51 µM [rising, partial curve].

As to `COc1ccc(S(=O)(=O)NCc2ccccc2)cc1`, the cell number change came out at 14%. Also, the AC50 under setting [1] was 29.1 µM [falling, single point].

(Values after PubChem BioAssay AID2685 (National Center for Advancing Translational Sciences (NCATS), 2010).)
